Laboratory results: patent US20040086896A1, “Polynucleotides and polypeptides associated with the NF-kB pathway” (priority 2001, published 2004)
For at least one compound, name, drawing or mass did not settle the structure.

Experiments:
[1] = test system: NF-kB; experiment: Microarray profile of 36d5, 37e4, 42e7, 105b2, 41h1 in THP-1 monocytes stimulated with LPS with or without inhibitor (FIG. 79); type: cell-based, human
[2] = test system: NF-κB pathway; experiment: AD037 mRNA by quantitative PCR in THP-1 monocytes, LPS with dexamethasone or IKK-2 inhibitor (FIG. 80); type: cell-based, human; conditions: LPS, 2, 4 and 8 hours post stimulation
Procedure: The figure illustrates the basal AD037 expression in THP-1 monocytes in response to LPS (“LPS”), LPS and the glucocorticoid dexamethasone (“LP/Dex”), or LPS and the IKK-2 inhibitor BMS-345541 (“LPS/345541”), for 2 hours, 4 hours, and 8 afters post stimulation. Unstimulated THP-1 moncytes served as a control. […] Expression data was obtained by measuring the steady state AD037 mRNA levels by quantitative PCR using the PCR primer pair provided as SEQ ID NO:162 and 163 as described herein.
Moreover, in an effort to further confirm the NF-κB-dependent expression of AD037, two approaches were investigated. In the first approach, additional inhibitors of the NF-κB pathway were used to assess their affect on AD037 expression. Although it has other transcriptional effects, dexamethasone inhibits NF-κB activity via glucocorticoid receptor-mediated transrepression (Reichardt et al. (2001) EMBO J. 20:7168-7173). The compound 4(2′-aminoethyl)amino-1,8-dimethylimidazo(1,2-a) quinoxaline, is a selective IKK-2 inhibitor (International Publication No. WO 02/60386, Published Oct. 10, 2002; Burke et al. (2003) J. Biol. Chem. 278:1450-1456).

C[C@@H]1C[C@H]2[C@@H]3CCC4=CC(=O)C=C[C@]4(C)[C@@]3(F)[C@@H](O)C[C@]2(C)[C@@]1(O)C(=O)CO [dexamethasone]
LPS-dependent 36d5 expression [1]: inhibited | LPS-dependent 37e4 expression [1]: inhibited | LPS-dependent 41h1 expression [1]: inhibited | LPS-dependent 42e7 expression [1]: inhibited | LPS-dependent 105b2 expression [1]: inhibited | LPS-induced AD037 expression (mRNA) [2]: failed to inhibit expression
